From the supplement of paper PMC6411743
± gives the standard deviation of the averaged measurements. Only a part is listed here, and it is no random draw.

Amino acid sequences for entries named in this document (tags omitted). A change or cut given only in a name is not applied to a line headed by its entry.
UniProt O96008: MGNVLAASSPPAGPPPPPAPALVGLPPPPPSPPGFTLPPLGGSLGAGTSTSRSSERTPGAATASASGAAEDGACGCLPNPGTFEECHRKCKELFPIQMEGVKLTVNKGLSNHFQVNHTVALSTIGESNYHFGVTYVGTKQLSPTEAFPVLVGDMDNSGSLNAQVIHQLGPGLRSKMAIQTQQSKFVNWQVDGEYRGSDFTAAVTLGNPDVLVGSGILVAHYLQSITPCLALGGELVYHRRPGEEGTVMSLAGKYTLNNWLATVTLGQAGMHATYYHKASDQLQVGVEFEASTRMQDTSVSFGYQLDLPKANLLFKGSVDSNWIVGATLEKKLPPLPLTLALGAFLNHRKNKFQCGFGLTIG
UniProt P10114: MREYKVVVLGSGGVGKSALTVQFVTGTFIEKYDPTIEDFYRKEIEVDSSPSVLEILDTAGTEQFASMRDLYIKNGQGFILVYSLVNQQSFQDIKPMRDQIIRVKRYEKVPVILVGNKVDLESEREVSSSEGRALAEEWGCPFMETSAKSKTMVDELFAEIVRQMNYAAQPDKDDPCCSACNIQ
UniProt P10636, whole entry: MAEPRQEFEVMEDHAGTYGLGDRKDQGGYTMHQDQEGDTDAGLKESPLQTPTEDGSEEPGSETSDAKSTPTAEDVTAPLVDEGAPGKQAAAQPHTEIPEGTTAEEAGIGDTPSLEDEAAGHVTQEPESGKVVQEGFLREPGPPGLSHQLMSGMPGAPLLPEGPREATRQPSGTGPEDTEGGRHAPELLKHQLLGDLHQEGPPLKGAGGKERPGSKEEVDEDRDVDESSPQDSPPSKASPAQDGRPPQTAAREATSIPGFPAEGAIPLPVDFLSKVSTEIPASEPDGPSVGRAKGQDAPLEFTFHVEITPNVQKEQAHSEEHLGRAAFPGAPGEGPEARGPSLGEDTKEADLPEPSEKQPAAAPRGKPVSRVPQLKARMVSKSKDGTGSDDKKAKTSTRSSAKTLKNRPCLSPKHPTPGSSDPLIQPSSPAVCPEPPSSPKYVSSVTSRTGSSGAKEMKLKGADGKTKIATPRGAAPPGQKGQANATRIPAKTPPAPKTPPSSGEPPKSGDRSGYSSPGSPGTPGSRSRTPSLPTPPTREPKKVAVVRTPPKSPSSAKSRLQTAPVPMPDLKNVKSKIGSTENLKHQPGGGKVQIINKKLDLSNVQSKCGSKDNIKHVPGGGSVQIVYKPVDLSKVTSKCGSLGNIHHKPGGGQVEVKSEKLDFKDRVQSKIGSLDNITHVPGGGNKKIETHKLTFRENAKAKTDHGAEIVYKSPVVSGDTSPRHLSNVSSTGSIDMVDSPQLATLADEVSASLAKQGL
UniProt P05387, whole entry: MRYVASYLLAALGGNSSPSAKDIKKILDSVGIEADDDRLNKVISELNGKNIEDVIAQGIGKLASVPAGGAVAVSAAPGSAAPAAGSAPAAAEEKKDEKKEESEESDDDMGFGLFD
UniProt P16083: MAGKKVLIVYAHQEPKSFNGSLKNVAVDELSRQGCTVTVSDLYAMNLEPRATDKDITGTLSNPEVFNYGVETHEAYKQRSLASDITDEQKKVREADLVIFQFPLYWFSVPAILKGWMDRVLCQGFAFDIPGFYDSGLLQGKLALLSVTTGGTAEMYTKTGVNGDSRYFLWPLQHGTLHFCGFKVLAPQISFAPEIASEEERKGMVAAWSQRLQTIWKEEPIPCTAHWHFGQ
UniProt P07311: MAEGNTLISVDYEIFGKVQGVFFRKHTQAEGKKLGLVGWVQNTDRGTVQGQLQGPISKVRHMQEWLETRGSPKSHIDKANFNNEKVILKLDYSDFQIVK
UniProt P01137, whole entry: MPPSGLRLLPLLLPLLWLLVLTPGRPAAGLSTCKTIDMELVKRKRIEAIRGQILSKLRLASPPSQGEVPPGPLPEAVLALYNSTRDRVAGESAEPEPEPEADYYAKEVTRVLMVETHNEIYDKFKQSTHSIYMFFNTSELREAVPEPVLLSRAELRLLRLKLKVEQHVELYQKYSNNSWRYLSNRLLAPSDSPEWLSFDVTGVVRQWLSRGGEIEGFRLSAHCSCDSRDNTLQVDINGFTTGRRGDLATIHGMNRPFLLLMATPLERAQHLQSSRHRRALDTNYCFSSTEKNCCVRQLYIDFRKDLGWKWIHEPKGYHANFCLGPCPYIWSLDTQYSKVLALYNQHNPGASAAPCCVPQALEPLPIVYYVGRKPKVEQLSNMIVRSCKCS
UniProt P13984, whole entry: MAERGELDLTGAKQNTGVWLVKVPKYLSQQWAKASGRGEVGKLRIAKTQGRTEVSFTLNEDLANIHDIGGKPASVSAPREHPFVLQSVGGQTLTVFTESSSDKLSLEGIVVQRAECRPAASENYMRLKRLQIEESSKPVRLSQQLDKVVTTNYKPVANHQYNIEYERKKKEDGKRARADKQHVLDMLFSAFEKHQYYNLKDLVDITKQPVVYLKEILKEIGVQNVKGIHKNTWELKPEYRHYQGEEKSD
UniProt P04040: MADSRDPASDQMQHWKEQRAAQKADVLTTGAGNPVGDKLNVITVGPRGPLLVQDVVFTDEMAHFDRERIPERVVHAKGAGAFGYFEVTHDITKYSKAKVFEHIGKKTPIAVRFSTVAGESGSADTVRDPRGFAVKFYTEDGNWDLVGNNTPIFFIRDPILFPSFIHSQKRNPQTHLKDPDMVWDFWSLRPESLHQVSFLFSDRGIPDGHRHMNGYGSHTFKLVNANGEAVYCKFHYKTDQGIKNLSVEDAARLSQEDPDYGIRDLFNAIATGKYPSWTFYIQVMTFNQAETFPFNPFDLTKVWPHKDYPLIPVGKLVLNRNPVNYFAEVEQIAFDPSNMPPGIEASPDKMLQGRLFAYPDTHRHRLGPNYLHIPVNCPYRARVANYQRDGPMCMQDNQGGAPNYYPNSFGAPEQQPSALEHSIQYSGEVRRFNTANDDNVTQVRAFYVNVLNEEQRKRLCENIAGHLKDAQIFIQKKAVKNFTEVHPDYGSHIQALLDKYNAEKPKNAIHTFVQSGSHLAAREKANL
UniProt P14868: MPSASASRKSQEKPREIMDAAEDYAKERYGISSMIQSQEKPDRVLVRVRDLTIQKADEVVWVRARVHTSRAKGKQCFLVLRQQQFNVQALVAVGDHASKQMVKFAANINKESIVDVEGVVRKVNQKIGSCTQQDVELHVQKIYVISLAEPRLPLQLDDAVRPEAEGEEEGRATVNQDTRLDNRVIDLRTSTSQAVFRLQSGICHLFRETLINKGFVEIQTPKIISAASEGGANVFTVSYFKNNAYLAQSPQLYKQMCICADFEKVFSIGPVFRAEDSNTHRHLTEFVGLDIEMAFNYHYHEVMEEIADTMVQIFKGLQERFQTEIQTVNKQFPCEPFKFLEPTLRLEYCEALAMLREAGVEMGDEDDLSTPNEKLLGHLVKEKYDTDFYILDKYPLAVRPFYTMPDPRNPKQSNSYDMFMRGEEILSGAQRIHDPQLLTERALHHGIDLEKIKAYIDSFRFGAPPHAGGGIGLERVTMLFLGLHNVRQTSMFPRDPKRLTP
UniProt P13807: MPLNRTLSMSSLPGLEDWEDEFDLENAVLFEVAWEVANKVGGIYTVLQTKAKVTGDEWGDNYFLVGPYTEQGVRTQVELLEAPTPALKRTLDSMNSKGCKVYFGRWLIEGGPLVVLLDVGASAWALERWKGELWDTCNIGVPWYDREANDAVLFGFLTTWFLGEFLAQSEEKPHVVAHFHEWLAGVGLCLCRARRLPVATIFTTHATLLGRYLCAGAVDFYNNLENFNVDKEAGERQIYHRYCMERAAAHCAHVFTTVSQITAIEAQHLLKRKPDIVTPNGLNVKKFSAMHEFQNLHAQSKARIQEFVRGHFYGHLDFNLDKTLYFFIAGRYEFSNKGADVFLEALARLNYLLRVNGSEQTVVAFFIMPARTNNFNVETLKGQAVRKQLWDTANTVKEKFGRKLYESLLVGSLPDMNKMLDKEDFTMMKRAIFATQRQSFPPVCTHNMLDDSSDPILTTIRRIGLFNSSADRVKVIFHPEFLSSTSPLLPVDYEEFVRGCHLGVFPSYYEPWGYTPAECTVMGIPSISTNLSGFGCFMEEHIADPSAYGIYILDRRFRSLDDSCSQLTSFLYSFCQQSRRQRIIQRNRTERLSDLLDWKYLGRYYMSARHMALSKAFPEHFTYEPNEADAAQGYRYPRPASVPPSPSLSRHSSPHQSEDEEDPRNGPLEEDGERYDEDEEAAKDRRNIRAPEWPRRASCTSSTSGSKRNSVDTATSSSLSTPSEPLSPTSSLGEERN
UniProt P07339: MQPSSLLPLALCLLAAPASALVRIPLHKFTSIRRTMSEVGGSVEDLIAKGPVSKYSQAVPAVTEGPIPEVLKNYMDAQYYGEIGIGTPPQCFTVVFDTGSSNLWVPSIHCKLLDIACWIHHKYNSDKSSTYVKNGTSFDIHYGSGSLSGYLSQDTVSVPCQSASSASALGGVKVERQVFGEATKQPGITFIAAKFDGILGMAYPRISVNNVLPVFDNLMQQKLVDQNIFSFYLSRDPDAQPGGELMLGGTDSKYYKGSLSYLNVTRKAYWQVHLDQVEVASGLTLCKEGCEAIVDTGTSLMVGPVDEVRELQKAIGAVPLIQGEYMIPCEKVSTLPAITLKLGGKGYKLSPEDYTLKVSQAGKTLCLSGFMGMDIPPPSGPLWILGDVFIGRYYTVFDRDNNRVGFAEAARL
UniProt P08567: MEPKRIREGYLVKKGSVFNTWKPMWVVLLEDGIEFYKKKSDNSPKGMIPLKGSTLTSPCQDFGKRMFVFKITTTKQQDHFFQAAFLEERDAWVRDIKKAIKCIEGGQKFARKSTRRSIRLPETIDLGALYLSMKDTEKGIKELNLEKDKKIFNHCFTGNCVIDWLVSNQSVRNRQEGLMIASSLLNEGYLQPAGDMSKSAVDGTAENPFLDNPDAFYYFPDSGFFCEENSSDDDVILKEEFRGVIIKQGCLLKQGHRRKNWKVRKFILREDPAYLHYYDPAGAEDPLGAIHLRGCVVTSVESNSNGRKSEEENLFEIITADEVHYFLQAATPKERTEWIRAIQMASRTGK
UniProt Q8IVS2: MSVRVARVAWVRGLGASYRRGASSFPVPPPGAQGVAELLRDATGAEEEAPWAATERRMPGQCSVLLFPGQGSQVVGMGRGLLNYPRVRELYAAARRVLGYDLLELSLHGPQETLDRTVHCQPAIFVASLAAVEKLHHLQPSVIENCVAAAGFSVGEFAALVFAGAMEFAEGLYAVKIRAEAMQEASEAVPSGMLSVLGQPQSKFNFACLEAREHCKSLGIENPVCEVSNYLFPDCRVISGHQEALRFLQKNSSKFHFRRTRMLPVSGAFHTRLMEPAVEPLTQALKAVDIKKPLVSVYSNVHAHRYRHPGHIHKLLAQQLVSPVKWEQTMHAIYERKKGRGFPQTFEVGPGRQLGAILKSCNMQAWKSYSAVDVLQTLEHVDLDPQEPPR
UniProt P04181: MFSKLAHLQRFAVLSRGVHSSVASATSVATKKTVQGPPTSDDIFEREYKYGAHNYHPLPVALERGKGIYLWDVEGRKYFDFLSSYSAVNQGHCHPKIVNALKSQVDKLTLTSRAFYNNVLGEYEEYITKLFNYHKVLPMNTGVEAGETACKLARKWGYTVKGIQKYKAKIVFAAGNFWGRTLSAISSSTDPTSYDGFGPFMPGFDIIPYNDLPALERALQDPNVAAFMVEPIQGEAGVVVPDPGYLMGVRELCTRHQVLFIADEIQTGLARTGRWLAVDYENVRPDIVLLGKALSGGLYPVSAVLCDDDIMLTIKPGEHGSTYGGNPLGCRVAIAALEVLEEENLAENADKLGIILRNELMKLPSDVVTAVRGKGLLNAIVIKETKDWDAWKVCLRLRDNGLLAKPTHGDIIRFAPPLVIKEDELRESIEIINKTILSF
UniProt P04075: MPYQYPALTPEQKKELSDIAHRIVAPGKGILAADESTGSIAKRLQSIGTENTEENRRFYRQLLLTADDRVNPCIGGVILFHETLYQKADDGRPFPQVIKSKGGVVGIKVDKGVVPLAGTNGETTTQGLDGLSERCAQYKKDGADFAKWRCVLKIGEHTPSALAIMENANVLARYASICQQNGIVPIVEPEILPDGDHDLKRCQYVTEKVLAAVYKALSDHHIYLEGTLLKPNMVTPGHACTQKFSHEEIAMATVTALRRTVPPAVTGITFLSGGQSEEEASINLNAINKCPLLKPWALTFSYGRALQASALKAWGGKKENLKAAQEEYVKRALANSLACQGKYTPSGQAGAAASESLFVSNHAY
UniProt P00813: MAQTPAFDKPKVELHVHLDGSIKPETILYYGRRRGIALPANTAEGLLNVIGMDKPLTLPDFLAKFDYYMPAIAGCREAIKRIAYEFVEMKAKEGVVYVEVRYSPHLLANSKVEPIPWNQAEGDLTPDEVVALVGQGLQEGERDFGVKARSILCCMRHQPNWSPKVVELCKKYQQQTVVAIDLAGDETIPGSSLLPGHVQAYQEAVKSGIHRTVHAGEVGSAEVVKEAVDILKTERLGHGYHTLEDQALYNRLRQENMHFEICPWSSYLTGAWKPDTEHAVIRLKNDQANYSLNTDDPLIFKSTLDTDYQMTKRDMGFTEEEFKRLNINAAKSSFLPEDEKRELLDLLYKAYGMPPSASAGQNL

Each target was assayed with Nc1ncnc2c1ncn2[C@@H]1O[C@H](COP(=O)(O)OP(=O)(O)OP(=O)(O)O)[C@@H](O)[C@H]1O [adenosine triphosphate] (assay: NP40-soluble protein abundance relative to vehicle (solubility fold change) (ratio); higher = more soluble protein in presence of ATP). Settings: concentration: 10mM.
Procedure, shortened: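 Jurkat crude lysate (Dounce-homogenised) was treated with eight concentrations from 0.1 to 10 mM for 10 min at room temperature, then 3 min at 37 °C. It was solubilised with 0.8% NP40 and benzonase (60 min, 4 °C) and ultracentrifuged, and the supernatant was TMT-labelled for LC-MS/MS. Intensities were vsn-normalised, and the value is the fold change against the NP40-processed vehicle per replicate, from three independent experiments.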
For SRF (UniProt P11831), the NP40-soluble protein abundance was 0.951 ± 0.025.
In the case of UniProt P16298 and related entries, the NP40-soluble protein abundance is reported as 0.928 ± 0.012.
TOMM40 (UniProt O96008) showed an NP40-soluble protein abundance of 0.965 ± 0.033.
PRKAR1A (UniProt P10644) gave an NP40-soluble protein abundance of 0.961 ± 0.079.
Target RAP2A (UniProt P10114) has an NP40-soluble protein abundance of 1.05 ± 0.19.
With UniProt P10636-6|P10636-7 the NP40-soluble protein abundance was 0.855 ± 0.089.
In the case of RPLP2 (UniProt P05387), the NP40-soluble protein abundance is reported as 0.95 ± 0.057.
With ISG15 (UniProt P05161) the NP40-soluble protein abundance was 0.969 ± 0.044.
In the case of CRYZL1 (UniProt O95825), the NP40-soluble protein abundance is reported as 1.03 ± 0.071.
Target UniProt P16083 and related entries has an NP40-soluble protein abundance of 0.965 ± 0.026.
For ACYP1 (UniProt P07311), the NP40-soluble protein abundance was 0.88 ± 0.049.
For UniProt P14209 and related entries, the NP40-soluble protein abundance was 0.97 ± 0.11.
UniProt P14324-2 showed an NP40-soluble protein abundance of 0.942 ± 0.096.
In the case of TGFB1 (UniProt P01137), the NP40-soluble protein abundance is reported as 0.931 ± 0.042.
GTF2F2 (UniProt P13984) gave an NP40-soluble protein abundance of 0.965 ± 0.039.
RPS2 (UniProt P15880) was tested, and the NP40-soluble protein abundance was 0.772 ± 0.097.
Target “P0DN79 and related entries (UniProt P35520+P0DN79)” has an NP40-soluble protein abundance of 0.949 ± 0.043.
Target LCP1 (UniProt P13796) has an NP40-soluble protein abundance of 0.792 ± 0.06.
Work on UniProt P09564 yielded an NP40-soluble protein abundance of 0.981 ± 0.049.
In the case of EPRS (UniProt P07814), the NP40-soluble protein abundance is reported as 0.938 ± 0.064.
CAT (UniProt P04040) was tested, and the NP40-soluble protein abundance was 0.946 ± 0.021.
UniProt P06748 and related entries showed an NP40-soluble protein abundance of 1.12 ± 0.055.
Work on DARS (UniProt P14868) yielded an NP40-soluble protein abundance of 0.973 ± 0.068.
With CAPN1 (UniProt P07384) the NP40-soluble protein abundance was 1 ± 0.065.
For ACAA1 (UniProt P09110), the NP40-soluble protein abundance was 0.97 ± 0.037.
UniProt P13807 and related entries showed an NP40-soluble protein abundance of 0.91 ± 0.04.
CTSD (UniProt P07339) was tested, and the NP40-soluble protein abundance was 0.952 ± 0.027.
PLEK (UniProt P08567) was tested, and the NP40-soluble protein abundance was 1.05 ± 0.058.
“P00395 and related entries (UniProt Q8IVS2)” showed an NP40-soluble protein abundance of 0.941 ± 0.042.
With SLC25A4 (UniProt P12235) the NP40-soluble protein abundance was 1 ± 0.088.
Target HCLS1 (UniProt P14317) has an NP40-soluble protein abundance of 0.908 ± 0.032.
For OAT (UniProt P04181), the NP40-soluble protein abundance was 0.92 ± 0.029.
Target ZBTB48 (UniProt P10074) has an NP40-soluble protein abundance of 0.972 ± 0.12.
UniProt O95980 gave an NP40-soluble protein abundance of 1.02 ± 0.098.
With UniProt P04075 and related entries the NP40-soluble protein abundance was 0.943 ± 0.038.
UniProt P12931 and related entries gave an NP40-soluble protein abundance of 1.02 ± 0.034.
Work on ADA (UniProt P00813) yielded an NP40-soluble protein abundance of 0.806 ± 0.15.
